{"sequences": {"note": "Amino acid sequences for entries named in this document (tags omitted).", "UniProt P45974": "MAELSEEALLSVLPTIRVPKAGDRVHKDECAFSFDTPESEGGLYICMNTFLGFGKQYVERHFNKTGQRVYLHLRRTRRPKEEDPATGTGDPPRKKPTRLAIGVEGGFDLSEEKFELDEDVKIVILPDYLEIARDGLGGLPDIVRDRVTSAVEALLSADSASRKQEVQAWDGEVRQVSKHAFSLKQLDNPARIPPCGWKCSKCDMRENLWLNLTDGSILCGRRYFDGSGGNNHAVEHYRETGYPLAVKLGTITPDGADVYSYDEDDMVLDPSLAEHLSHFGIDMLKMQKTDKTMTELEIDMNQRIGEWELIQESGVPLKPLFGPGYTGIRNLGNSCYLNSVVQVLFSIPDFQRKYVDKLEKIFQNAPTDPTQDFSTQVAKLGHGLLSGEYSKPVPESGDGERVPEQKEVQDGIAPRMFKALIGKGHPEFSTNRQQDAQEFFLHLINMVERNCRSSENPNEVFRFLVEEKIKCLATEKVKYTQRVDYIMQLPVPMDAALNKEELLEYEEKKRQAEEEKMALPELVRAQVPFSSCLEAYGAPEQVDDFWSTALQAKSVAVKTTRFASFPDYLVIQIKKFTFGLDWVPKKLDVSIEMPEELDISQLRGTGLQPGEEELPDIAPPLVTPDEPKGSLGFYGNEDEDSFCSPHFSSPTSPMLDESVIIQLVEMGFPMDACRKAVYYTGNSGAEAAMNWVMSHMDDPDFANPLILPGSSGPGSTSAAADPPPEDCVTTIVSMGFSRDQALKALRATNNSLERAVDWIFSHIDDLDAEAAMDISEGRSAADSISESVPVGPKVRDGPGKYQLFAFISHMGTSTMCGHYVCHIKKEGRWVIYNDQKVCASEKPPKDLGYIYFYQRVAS", "UniProt P40763": "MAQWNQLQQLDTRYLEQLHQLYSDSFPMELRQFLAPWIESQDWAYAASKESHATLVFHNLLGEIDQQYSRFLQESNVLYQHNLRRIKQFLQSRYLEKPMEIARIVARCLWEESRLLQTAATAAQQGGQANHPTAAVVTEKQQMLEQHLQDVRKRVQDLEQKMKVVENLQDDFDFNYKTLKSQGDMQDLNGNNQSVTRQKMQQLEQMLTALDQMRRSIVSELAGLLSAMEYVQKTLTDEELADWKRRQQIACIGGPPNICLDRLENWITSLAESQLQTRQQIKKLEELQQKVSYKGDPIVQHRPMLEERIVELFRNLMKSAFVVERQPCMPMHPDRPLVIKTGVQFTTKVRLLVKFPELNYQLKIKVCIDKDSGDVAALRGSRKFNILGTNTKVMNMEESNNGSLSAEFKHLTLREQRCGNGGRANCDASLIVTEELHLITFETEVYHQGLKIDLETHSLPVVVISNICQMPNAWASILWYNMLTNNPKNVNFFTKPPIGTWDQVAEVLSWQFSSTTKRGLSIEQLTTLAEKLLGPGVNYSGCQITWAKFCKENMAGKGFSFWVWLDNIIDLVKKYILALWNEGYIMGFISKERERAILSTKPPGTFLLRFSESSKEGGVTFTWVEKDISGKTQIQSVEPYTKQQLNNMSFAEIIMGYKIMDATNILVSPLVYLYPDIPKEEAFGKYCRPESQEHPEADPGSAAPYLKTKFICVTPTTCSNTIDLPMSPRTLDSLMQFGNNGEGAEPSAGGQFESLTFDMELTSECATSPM"}, "source": "paper PMC12631106", "target": "ubiquitin specific peptidase 5 (USP5) (human (endogenous in HCT116)) (UniProt P45974)", "assay": "affinity purification with mass spectrometry; HCT116 total protein, IP with anti-USP5 or anti-IgG antibody and protein A + G magnetic beads; SDS-PAGE, silver staining, anti-USP5-specific band cut for LC-MS/MS", "note": "Results are given in words; binding and its absence hold for the method and conditions named. In cells and extracts the contact can be indirect. Here binding means that the protein was enriched with, or labelled near, the bait; the list need not be complete."}
{"substance": "signal transducer and activator of transcription 3 (STAT3) (from UniProt P40763 1-770)", "values": [{"measurement": "binding", "value": "binds"}]}
